Results taken from US20250288555A1, “SYSTEMS AND METHODS TO IMPROVE EXERCISE TOLERANCE” (EpicentRx, Inc., priority 2022, published 2025).
At least one compound was matched to its structure with a doubt left.

Key:
[1] = tested on: superoxide dismutase (SOD); test: Superoxide dismutase (SOD) concentration in gastrocnemius, soleus and extensor digitorum longus muscles; assay type: in vivo, mice
[2] = tested on: C57BL/6J mice; test: Endurance exercise capacity (EEC) test on motorized treadmill until exhaustion; assay type: in vivo
[3] = tested on: creatine kinase (CK); test: Creatine kinase (CK / CK-MB) in blood/serum after exhaustive exercise, commercial ELISA kit; assay type: in vivo, mice
[4] = tested on: malondialdehyde (MDA); test: Malondialdehyde (MDA) in gastrocnemius, soleus and extensor digitorum longus muscles after exhaustive exercise; assay type: in vivo, mice; conditions: RRx-001 groups (2 and 5 mg/kg) vs control/vehicle

## O=C(CBr)N1CC([N+](=O)[O-])([N+](=O)[O-])C1 [RRx-001, 2-bromo-1-(3,3-dinitroazetidin-1-yl)ethan-1-one]
[1]; 2 mg/kg RRx-001 group
  SOD concentration, soleus muscle (FIG. 4B): lower SOD concentration than both the vehicle group and the 5 mg/kg RRx-001 group
[1]; RRx-001 group vs vehicle group
  SOD concentration, extensor muscle (FIG. 4B): higher concentrations
  SOD concentration, gastrocnemius muscle (FIG. 4B): higher concentrations
[2]; 2 mg/kg and 5 mg/kg groups, i.p. in DMSO, vs vehicle group
  exercise performance over the 3-week period (FIG. 2): greater increase in exercise performance
[2]; weeks 2 and 3, 5 mg/kg or 2 mg/kg 3 times per week, treadmill 30 m/min, 10% incline, vs control group
  exercise times at which mice reached fatigue: significantly longer
[3]; RRx-001 groups vs control, blood collected after exercise
  CK levels from blood: lower than control
[3]; mice administered RRx-001 vs control
  protection against strenuous exercise-induced muscle damage: protected against strenuous exercise-induced muscle damage
[3]; serum, RRx-001-treated mice vs vehicle
  levels of creatine kinase-MB (CK-MB) after exercise (FIG. 3): lower levels
[4]
  MDA levels in gastrocnemius, soleus, and extensor digitorum muscles: significantly lower
